{"source": "paper PMC7821095", "binders": {"B1": {"name": "Plasmodium falciparum chitinase PfCHT1 expressed in chimeric P. berghei Pb-PfCHT1(r) (enzyme, UniProt Q8I4R4 29-378)", "chain": "HRARPGESRKNPREIIKTFKESGKGIIQGYYPSWVSYNHNLKDLNPNLNVVHMSFAKMDLSYDSIESIVGSPLLFKSLIGLEYIGLNEYFNDAMNLRKARPDIIMLLSLGGETYHPSSFDSALNAVEKIANLVDELGFDGIDVDYEPNGSFDGLNDKEKADFFVQYVTKLREYMCDDKLISISQSSNGALSCIGFNDPKKICMDDEAPYNSKYFNKPDVKKELLRAAQMASAGGAIYLMNNLKDMIDMVFVQTFNYTNSTDSTVMKELYDSYAYYGKKYDYVIIMGFTLMFPSTPFNPNDKMLVKSIGDFVKTENKLNKRADGFGLWSLSSDNAAHNEQLAIEYFVESLH"}}, "target": "Plasmodium falciparum chitinase PfCHT1 expressed in chimeric P. berghei Pb-PfCHT1(r) (P. falciparum) (UniProt Q8I4R4)", "test": "chitin bead pull-down, non-reducing SDS-PAGE and western blot; chitin beads in Pb-PfCHT1(r) ookinete culture supernatant, 4°C for 4 h; washed with PBST (0.5% Tween 20) and PBS; SDS sample buffer without 2-mercaptoethanol; probed with mAb 1C3", "note": "Results are given in words; binding and its absence hold for the method and conditions named. Binding seen in cells or lysates may run through a third protein."}
{"binder": "B1", "values": [{"measurement": "binding", "result": "no binding"}]}
